Results from publication PMC12370185.
This is one part of the list. For some assays here: At the low end of the ranking the order means little.

Tests used:
Settings in all cases: 10 mM Tris-Cl pH 7.5, 50 mM NaCl, 1 mM DTT, 0.25 mg/ml BSA, 2 mM MgCl2, 0.025% Nonidet P-40, 5% glycerol; 28 nM nucleosome library; 10 min on ice then 30 min …; high values mean tight binding; double strand, one strand shown
[1] = tested on: KLF4 + histone octamer; test: EMSA with sequencing
[2] = tested on: SOX2 + histone octamer; test: EMSA with sequencing
[3] = tested on: c-MYC + MAX + histone octamer; test: EMSA with sequencing
[4] = tested on: OCT4 + histone octamer; test: Pioneer-seq (competitive nucleosome EMSA with sequencing)
[5] = tested on: c-MYC + MAX + histone octamer; test: as above

Sequence | binding signal (log2 relative supershift) [1] | binding signal (log2 relative supershift) [2] | binding signal (log2 relative supershift) [3] | binding signal (log2 relative supershift) [4] | binding signal (log2 relative supershift) [5]
GATGGACCCTATACGCGGCAAGTGTCACACATTTTTACACCTGCCTGGGGTGCCTTTCCCTCCCTCCTCCCTTGACCCTCTGAAAAACACCACCTTCCAGTCCTTCCCCGCCAATTGCTCCATGACATGTCTCTTCAAGCCCTGAGTCAGTGAACCGTGCTACATGGTCTTGCATTGTACACTTGTAACCATTATCATCCCTATGACACCTGCCAGTCGGATAGTGTTCC | 2.19 | 0.515 | 0.737 | -0.521 | 
GATGGACCCTATACGCGGCGTATCCTAGAACTGCACTTTCTATCAACTTATGTTTCCCTGTGAAGAAAACCTTGTCTCAGCGAGGTGTGGCTGTTCTCAGAGTACTGTGTGTATATGCACGTGGGTGGGTGTGGGTGTGCATATATGTGTAATGGGGACGAACGAGTATTCCTGTACCTTCTTGTTGAGTAGAAGAAAAACATCAAGTTCTGCCAGTCGGATAGTGTTCC | 1.56 | 0.153 |  | -0.843 | -0.284
GATGGACCCTATACGCGGCTTGTTGTTTGTACCTTTAAGTCCTATCCTGTATTTATGGATGAAATGATGTCATGTCTGAGATTTGCTTCACAATAATGCAGTAGTGGGCAAAGAAGGGTGGAAGTGCAGATGACACGCAATAGGCTGTGTGCTGGTTAATTTTGAGGGTGGTTGATAGATATGTGTGGCTTATTGTACAGTTCCCTTTTTTGCCAGTCGGATAGTGTTCC | 1.1 | 0.848 |  | -0.459 | -0.145
GATGGACCCTATACGCGGCTCTTGCACCAGTGAAAACTCTGTTACCACACAACTGGAGTTCATACACTGGCATCTAGGAGCCACTCTTTTAGAGCAGTGTTTCCATCTCAAACCATACCATTGTCTAGTAAGCTGACCATTTGCTTTTGGGAACCCAGATGTGAAGAAGTGAAGGAGGGGAGAGGAAGAGAGAACAGAACTAAGATGTTTTGCCAGTCGGATAGTGTTCC | 1.99 | 0.831 | 0.14 | -0.0258 | 
GATGGACCCTATACGCGGCGTGGCTAGTGGGAGGGGGCATCTCTGTGAGGCATGTTTATGAAAAGGCAGTGCAGGCCTGGGCCTGTCCTCAGCACTGGCCCTTGTCAAGGCCTGTTTCCTTGAGCCTGGAGTCCTTTGGGAGCTGTGAGAACCAAAAGAGAAACGGCACACCTGTACATTTACTCATCCTTTTAATTTAGGCAAGGATTCTGCCAGTCGGATAGTGTTCC | 2.57 | 0.306 | 0.168 | -0.0469 | 
GATGGACCCTATACGCGGCACTCACTACACACCCATGTACATACCCCCCATGCACACATGCATACACACACACAGGTACATCCACAATACACCCACATACGCATATGTATGCACATCCACACACACTACACACCCACACACGTGCCCAACCCCCATGTACATGCATGCACCTACACACCCATTCACACACCCTCATACATACACACATTCTGCCAGTCGGATAGTGTTCC | 2.48 | 0.207 | 0.775 | -0.247 | 
GATGGACCCTATACGCGGCCAAACTGATTTTGGGAAGCAGTCTAGAAAGATGCTTGAAAAATGTACTGATGTGTAATGCCAGCAGCAGGCCATTGTCATGGTATGGAATAATGGTGACTGAAAGTCATTCTCCCTTGCTTGGGATGATCTGTCTTAAGCATGAGCAGCTTGAGGCTGAATTGTAGACAATAAAACGTGAGTCCAATGACATGCCAGTCGGATAGTGTTCC | 0.596 | 0.975 | 0.502 | -0.436 | 
GATGGACCCTATACGCGGCTTCACAGTACTACTCCCTACCTGACTGTCTCAGCATATGAATGCAAACTGCAGAAGGGTAGAAACTTGCTATTTACTGCAGTAGCCTCTGGCCCTAGGATACTTGCCTAACACTGCATGGATGTAATTGTCAGCCAGTCAATTGCATGGAATTTTGCTGAAAGTACAACTTTTGTCATTGCTTAGGAGAAGTGCCAGTCGGATAGTGTTCC | 1.57 | 0.923 |  | -0.154 | -0.172
GATGGACCCTATACGCGGCCAAAAGGGGCTGTGGTATCACAGCAGCCCATGAATACATGAGGCATGGTCATGTATAGAAGGACCTCCAGCCCTGTCAGTGAAGGCTGCAAGGAAGGGTGATGGAGCTGCTGCTGCTTAAACAAGAGAAATACTGAGTGCTTTCCTTGCACATATCATTGGCATTTGCCTGCCTCCACATTTATTTCATCCTGCCAGTCGGATAGTGTTCC | 1.27 | 0.184 | 0.0546 | -0.398 | 
GATGGACCCTATACGCGGCTGTTTTGTATGCATGAGTTCTAAACCACCCATCCCCACAAAGGAGTTTCCTTACATTTTTACTCTGTATGTGGGTGTGTTTGGAAAGATGAGAAAGAAACATCATTATTATGCATGGTACTGGTAAACAACACCACCACCACCACCCAGACACACAAAAAAATGGAACAGAATAGAGAGCCCAGAAATAGGTGCCAGTCGGATAGTGTTCC | 2.62 | 1.86 | 0.0765 | -0.509 | 
GATGGACCCTATACGCGGCGCCTGATCTATGTGCCCCACGCTTGGCAATGGGACTGGATTGGAGGCAGAGGATATGCATCTGAAAGTCAAGATACTTGCCAAGAGGAGAGGGAGAGGTGTTGGTGATGCAACCAGAATATCCATTACAGTAAACCAATTGTCAGAGCTACAAACTCTTCGTTTAATAGTCTTCCTATAGTCTCAGTCTTGTGCCAGTCGGATAGTGTTCC | 0.346 | 0.498 | 0.361 | -0.297 | 
GATGGACCCTATACGCGGCTTAGATAAACAAAATCTGGAGTATCTGAAGGGTGTGTAAGGCAGAAGTCATGTGAGGTCTGCACACAGCACACTGCTACCTACAGTGTTGGGGGAGTGGCATTGAGCACCATTATCATGCAAGGTGGAGGTGGGTGCCAATAATCACCACTATCATGCAAGGCTAGGGTGGGTGAGGGCAGAAGCCACTCTTGCCAGTCGGATAGTGTTCC | 2.62 | 0.363 |  | -0.372 | -0.0639
GATGGACCCTATACGCGGCCCTAGTAGCTGGGAGTTCCCTCTCTGGAGGCCTGTTCCCATTTCTCCAGAGACAATGCTGCATCACAATGTTCCAGATCTTTCACAGGTCATTGACAGGCATCCTATAGGACTTCCCCCCAATACCCCCACCCCGAGAACTCTTTCAGTGGGTTCTCCAGTGACTTAGAAACAAATTTTTTCCTTGGTGGGTGCCAGTCGGATAGTGTTCC | 2.55 | 0.411 |  | -0.307 | -0.16
GATGGACCCTATACGCGGCTTTGCCGAGAGGTTTGTTTCTGTTATAACTTTTCAAGACTGACTCCATTGTTTATTTTTGGAGCCAACTAGTCTTAGACCTCAGACCTCAGCACACTCAACAGGCCTCAACATGTTTTGAGGGCCTGCCGGAGAAGGCCCAGGCCTCACGGGTGCAGGTCCTACAGAAACCCAGTATCTGAGAGCAGCCTCTGCCAGTCGGATAGTGTTCC | 0.201 | 1.59 |  | -0.572 | -0.307
GATGGACCCTATACGCGGCCTCCTAAGAGGCTTCTCATAGCAAACTCCCCCTCCTTCCGCTGAGAGGGTTTGATGGCAGGCAACAGATGACTTAGGACTCCTCTAATGGTCTTTAGGAACAGGAAGGCACCACCACCATTATCATGCAACATTGTTCTGGAAGTGCAAGCCAATGCAATTAGATAAGGAGAAAAATAAGAGGTAAATGTATGCCAGTCGGATAGTGTTCC | 1.71 | 0.371 |  | -0.0711 | -0.522
GATGGACCCTATACGCGGCAGACCAGAACTGAATGAAGTGAAAACATTTTCAAATGCAAGTGGCAGGCAAACTGCCCCACCCTATCCTGGAAGACAATACAAAGAGGGATGGGGGAGAGAAGAAAATAAGTGATTCTCCTACACACCCAGCCCATGCCATGCTAATCCCTTTTTGAGGACCACTGGTTTTAAACAAACTCTCTTTTGCTGTGCCAGTCGGATAGTGTTCC | 2.19 | 0.543 |  | -0.114 | -0.315
GATGGACCCTATACGCGGCTCACACACCCATCCTAACATTGTCAAATGTGTCACACACCCACCTTACCATTGTCATCTATCCCACCATTGTCAAGTGTGTCATGCACCCATCCTACCATTGTCACCCATCATACCATTGTCAAGCAACTGTTTAACAATGAAAAGATTTATAAGATGGAAATAGATTATCAGATGGATTTAAGGCCTTGATGCCAGTCGGATAGTGTTCC | 1.99 | 0.0608 |  | -0.391 | -0.716

4 entries from above, with tabs:
Sequence	binding signal (log2 relative supershift) [1]	binding signal (log2 relative supershift) [2]	binding signal (log2 relative supershift) [3]	binding signal (log2 relative supershift) [4]	binding signal (log2 relative supershift) [5]
GATGGACCCTATACGCGGCAAGTGTCACACATTTTTACACCTGCCTGGGGTGCCTTTCCCTCCCTCCTCCCTTGACCCTCTGAAAAACACCACCTTCCAGTCCTTCCCCGCCAATTGCTCCATGACATGTCTCTTCAAGCCCTGAGTCAGTGAACCGTGCTACATGGTCTTGCATTGTACACTTGTAACCATTATCATCCCTATGACACCTGCCAGTCGGATAGTGTTCC	2.19	0.515	0.737	-0.521	
GATGGACCCTATACGCGGCGTATCCTAGAACTGCACTTTCTATCAACTTATGTTTCCCTGTGAAGAAAACCTTGTCTCAGCGAGGTGTGGCTGTTCTCAGAGTACTGTGTGTATATGCACGTGGGTGGGTGTGGGTGTGCATATATGTGTAATGGGGACGAACGAGTATTCCTGTACCTTCTTGTTGAGTAGAAGAAAAACATCAAGTTCTGCCAGTCGGATAGTGTTCC	1.56	0.153		-0.843	-0.284
GATGGACCCTATACGCGGCCAAAAGGGGCTGTGGTATCACAGCAGCCCATGAATACATGAGGCATGGTCATGTATAGAAGGACCTCCAGCCCTGTCAGTGAAGGCTGCAAGGAAGGGTGATGGAGCTGCTGCTGCTTAAACAAGAGAAATACTGAGTGCTTTCCTTGCACATATCATTGGCATTTGCCTGCCTCCACATTTATTTCATCCTGCCAGTCGGATAGTGTTCC	1.27	0.184	0.0546	-0.398	
GATGGACCCTATACGCGGCGCCTGATCTATGTGCCCCACGCTTGGCAATGGGACTGGATTGGAGGCAGAGGATATGCATCTGAAAGTCAAGATACTTGCCAAGAGGAGAGGGAGAGGTGTTGGTGATGCAACCAGAATATCCATTACAGTAAACCAATTGTCAGAGCTACAAACTCTTCGTTTAATAGTCTTCCTATAGTCTCAGTCTTGTGCCAGTCGGATAGTGTTCC	0.346	0.498	0.361	-0.297	
